Data on 32 compounds can be found in PubChem BioAssay AID192 (DTP/NCI, 2004).

The test system of the assay is BDF1 mice, B16 melanoma ip, median survival T/C. The experiment in a line: NCI In Vivo Anticancer Drug Screen. Data for tumor model B16 Melanoma (intraperitoneal) in B6D2F1 (BDF1) mice. The conditions noted are these: T/C endpoint: median survival time, higher T/C = longer survival. In short, it runs like this:
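Vehicle-treated animals serve as the reference (C); treated animals (T) are scored for survival or tumor size after tumor transplantation.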

The mark [1] stands for this setting: dose: 12.5 mg/kg/injection, schedule: Q01DX009 (ip), vehicle: saline with Tween-80.
[2] abbreviates: dose: 12.5 mg/kg/injection, schedule: Q04DX003 (ip), vehicle: saline with Tween-80.
Where [3] appears, read: dose: 25.0 mg/kg/injection, schedule: Q01DX009 (ip), vehicle: saline with Tween-80.
[4] abbreviates: dose: 50.0 mg/kg/injection, schedule: Q04DX003 (ip), vehicle: saline with Tween-80.
The mark [5] stands for this setting: dose: 100.0 mg/kg/injection, schedule: Q04DX003 (ip), vehicle: saline with Tween-80.
Setting [6] is: dose: 200.0 mg/kg/injection, schedule: Q04DX003 (ip), vehicle: saline with Tween-80.
The mark [7] stands for this setting: dose: 400.0 mg/kg/injection, schedule: Q04DX003 (ip), vehicle: saline with Tween-80.
The mark [8] stands for this setting: dose: 200.0 mg/kg/injection, schedule: Q01DX009 (ip), vehicle: saline with Tween-80.
Where [9] appears, read: dose: 200.0 mg/kg/injection, schedule: Q01DX009 (ip), vehicle: Klucel (hydroxypropylcellulose) (HPC).
The mark [10] stands for this setting: dose: 400.0 mg/kg/injection, schedule: Q01DX009 (ip), vehicle: Klucel (hydroxypropylcellulose) (HPC).
Setting [11] is: dose: 100.0 mg/kg/injection, schedule: Q01DX009 (ip), vehicle: saline with Tween-80.
Setting [12] is: dose: 200.0 mg/kg/injection, schedule: Q01DX009 (ip), vehicle: saline.
Where [13] appears, read: dose: 400.0 mg/kg/injection, schedule: Q01DX009 (ip), vehicle: other.
Where [14] appears, read: dose: 50.0 mg/kg/injection, schedule: Q01DX009 (ip), vehicle: saline with Tween-80.
Setting [15] is: dose: 400.0 mg/kg/injection, schedule: Q01DX009 (ip), vehicle: saline with Tween-80.

Structures are written as SMILES. The list shows only some results of the screen, not a fair sample: it is rich in T/C values a quarter to a half above the control, in often repeated tests (any T/C) and in doses without a T/C. Further doses and runs are listed elsewhere. T/C gives the treated animals as a percentage of the vehicle group. Some doses have a count of surviving animals in place of a T/C: the source holds a T/C of zero for them, seemingly a mark for toxic or unscored doses. Some survivor counts are full or nearly so, which does not show that the dose was tolerated: survival well below the control is almost never listed, so the zero probably covers shortened survival too. Survivors were counted at the toxicity check, usually on the fifth day, unless a day is given; later deaths do not show. Schedule codes are those of the source, taken here to give the interval after Q, in days (D) or hours (H), and the number of doses after X. Marks such as (2×) count equal records among those shown. For survival time, this PubChem deposit counts one and a half times the control or more as active, and values a quarter to a half above the control carry no call in these data; other NCI protocols may use other cut-offs. Peptide text beside a SMILES is read from it. * marks the point of attachment. Cbz = O=C(OCc1ccccc1)*; Bn = c1ccc(C*)cc1

As to `C[NH-].C[NH-].[Cl][Pt+2][Cl]`, the T/C (dose: 0.78 mg/kg/injection, schedule: Q01DX009 (ip), vehicle: saline) is 136 % of control; the T/C (dose: 1.56 mg/kg/injection, schedule: Q01DX009 (ip), vehicle: saline) was 136 % of control; the T/C (dose: 3.13 mg/kg/injection, schedule: Q01DX009 (ip), vehicle: saline with Tween-80) was 144 % of control; the T/C (dose: 5.0 mg/kg/injection, schedule: Q01DX009 (ip), vehicle: saline with Tween-80) was 136 % of control; the T/C under setting [2] was 145 % of control. Also, the survivor count is 10 of 10 (dose: 3.12 mg/kg/injection, schedule: Q01DX009 (ip), vehicle: saline); 10 of 10 (dose: 6.25 mg/kg/injection, schedule: Q01DX009 (ip), vehicle: saline with Tween-80); 10 of 10 (dose: 6.25 mg/kg/injection, schedule: Q01DX009 (ip), vehicle: saline); 9 of 10 (dose: 12.0 mg/kg/injection, schedule: Q01DX009 (ip), vehicle: saline with Tween-80); 10 of 10 under setting [1]; 7 of 10 (dose: 18.0 mg/kg/injection, schedule: Q01DX009 (ip), vehicle: saline with Tween-80). The survivor count runs as follows: under setting [3], 5 of 10; (dose: 25.0 mg/kg/injection, schedule: Q04DX003 (ip), vehicle: saline with Tween-80) 8 of 10; under setting [4], 0 of 10; under setting [5], 0 of 10; under setting [6], 0 of 10; under setting [7], 0 of 10.

`COC(=O)C(CC(C)C)NC(=O)C(CSCc1ccccc1)NC(=O)OCc1ccccc1` (centres undefined) (Cbz-Cys(Bn)-Leu-OMe; configuration not given here): the survivor count by setting is: (dose: 50.0 mg/kg/injection, schedule: Q04DX003 (ip), vehicle: DMSO) 10 of 10; (dose: 100.0 mg/kg/injection, schedule: Q04DX003 (ip), vehicle: DMSO) 10 of 10; (dose: 200.0 mg/kg/injection, schedule: Q04DX003 (ip), vehicle: DMSO) 10 of 10.

`CCCCCCCCN(C)N=Nc1ccc(Cl)cc1C(=O)O`: under setting [8], the survivor count was 10 of 10.

Take `C=C1N(C)c2ccc(Cl)cc2C1(C)C`: the survivor count under setting [9] is listed as 8 of 10.

As for `Cc1ccc(S(=O)(=O)Nc2ccccc2-c2nc3c(Cl)ccc(Cl)c3c(=O)o2)cc1`, the survivor count under setting [10] is on record as 7 of 10.

With `O=S(=O)(CCBr)CCBr`, the survivor count under setting [8] was 0 of 10.

Turning to `O=[N+]([O-])c1ccc(Cl)c2c([N+](=O)[O-])cccc12`, the survivor count is, setting by setting: under setting [11], 10 of 10; under setting [8], 10 of 10.

For `COc1cc(C(=O)CO)cc(OC)c1OC(C)=O`, under setting [7], the survivor count was 10 of 10.

Turning to `CCC(CC)c1ccccn1`, the survivor count (dose: 400.0 mg/kg/injection, schedule: Q01DX009 (ip), vehicle: carboxymethylcellulose (CMC)) is 3 of 10.

As to `Cc1nc2c(O)ccc(O)c2nc1C`, the survivor count is given as 10 of 10 under setting [1] and 10 of 10 under setting [3].

For the compound `CN1C(=O)NC(c2ccc(Cl)cc2)(c2ccc(Cl)cc2)C1=O`, the T/C (dose: 3.12 mg/kg/injection, schedule: Q01DX009 (ip), vehicle: water) is 127 % of control. Besides, the survivor count (dose: 400.0 mg/kg/injection, schedule: Q01DX009 (ip), vehicle: distilled water + Tween-80) is recorded as 7 of 10.

On to `CCCCNC(=O)OCC(C)(CCC)COC(N)=O` (centres undefined), for which the survivor count runs as follows: (dose: 25.0 mg/kg/injection, schedule: Q01DX009 (ip), vehicle: Klucel (hydroxypropylcellulose) (HPC)) 10 of 10; under setting [10], 10 of 10.

In the case of `COc1ccc(NC(=O)Nc2ccccc2F)cc1`, the survivor count under setting [10] is 6 of 6.

On to `C=CC1CC[N-]CC1.C=CC1CC[N-]CC1.C=CC1CC[N-]CC1.[Cl][Cr]([Cl])[Cl]`, for which the T/C under setting [2] is 126 % of control.

Turning to `S=C=NCc1cccc(CN=C=S)c1`, the survivor count reads like this: (dose: 7.5 mg/kg/injection, schedule: Q04DX003 (ip), vehicle: saline with Tween-80) 9 of 10; (dose: 15.0 mg/kg/injection, schedule: Q04DX003 (ip), vehicle: saline with Tween-80) 6 of 10; (dose: 30.0 mg/kg/injection, schedule: Q04DX003 (ip), vehicle: saline with Tween-80) 1 of 10.

On to `CCOC(=O)C(C#N)N=O` (centres undefined), for which the survivor count is 5 of 10 (dose: 100.0 mg/kg/injection, schedule: Q01DX009 (ip), vehicle: saline); 0 of 10 under setting [12]; 2 of 10 (dose: 200.0 mg/kg/injection, schedule: Q04DX003 (ip), vehicle: saline).

For the compound `CCN=NNc1ccc(C)cc1`, the survivor count under setting [5] was 9 of 10, the survivor count under setting [6] is listed as 0 of 10 and the survivor count under setting [7] is reported as 0 of 10.

With `CCCCCCC(=O)CCCC`, under setting [13], the survivor count is listed as 8 of 10.

For `CC1=NCCc2c1cc1c([nH]c3ccccc31)c2C`, the T/C under setting [14] was 128 % of control. The survivor count under setting [11] is 9 of 10.

Take `Cc1cc(C)c(C(Cl)(Cl)Cl)c(C)c1Cl`: the survivor count is 10 of 10 (2×) under setting [3], 10 of 10 under setting [14], 4 of 10 under setting [11] and 2 of 10 under setting [8].

As for `C(COCC1CO1)OCC1CO1` (centres undefined), under setting [12], the survivor count was 2 of 10.

As to `Cc1c(C(=O)O)cc2n(c1=O)Cc1cc3ccccc3nc1-2`, the survivor count by setting is: under setting [6], 10 of 10; under setting [7], 3 of 10.

With `CCCCCCCCCCCCCCCCCC[n+]1cccc(C(=O)N2CCOCC2)c1`, the survivor count (dose: 32.0 mg/kg/injection, schedule: Q01DX009 (ip), vehicle: saline sonified) was 6 of 6.

Consider `O=C(O)c1cccc2[nH]c(=O)oc(=O)c12`, for which the survivor count under setting [15] is listed as 9 of 10.

Regarding `CCOC(=O)c1ccc(OC(=O)Nc2ccc(Cl)cc2)cc1`, the survivor count under setting [15] is given as 10 of 10.

With `CCCCCCCCCC(=O)CCCCCC`, the survivor count under setting [10] is on record as 10 of 10.

Take `NC(=O)Cn1cnc2c(=S)nc[nH]c21`: under setting [4], the survivor count is 1 of 10.

Take `O/N=C1\CCCC\C1=N/O.O/N=C1\CCCC\C1=N/O.[Pd]`: the survivor count by setting is: (dose: 100.0 mg/kg/injection, schedule: Q04DX003 (ip), vehicle: other) 10 of 10; (dose: 200.0 mg/kg/injection, schedule: Q04DX003 (ip), vehicle: other) 10 of 10; (dose: 400.0 mg/kg/injection, schedule: Q04DX003 (ip), vehicle: other) 10 of 10.

For `CC(CCc1ccccc1)NC(C)C(O)c1ccc(O)cc1` (centres undefined), the survivor count runs as follows: under setting [9], 6 of 10; under setting [10], 0 of 10.

With `O=C(O)C1C2CCC1C2` (centres undefined), the survivor count reads like this: under setting [6], 9 of 10; under setting [7], 7 of 10.

For the compound `COc1cc(O)c2c(c1)C(=O)c1cc3c(c(O)c1C2=O)C(O)C(OC)C(C)(O)C3=O` (centres undefined), the survivor count was 6 of 6 (dose: 50.0 mg/kg/injection, schedule: Q01DX009 (ip), vehicle: other); 10 of 10 (dose: 100.0 mg/kg/injection, schedule: Q01DX009 (ip), vehicle: Klucel (hydroxypropylcellulose) (HPC)); 6 of 6 (dose: 100.0 mg/kg/injection, schedule: Q01DX009 (ip), vehicle: other); 6 of 6 (dose: 200.0 mg/kg/injection, schedule: Q01DX009 (ip), vehicle: other); 6 of 6 under setting [13].

In the case of `O=[N+]([O-])c1ccc(Sc2ccncn2)c([N+](=O)[O-])c1`, the survivor count was 6 of 10 under setting [11] and 0 of 10 (2×) under setting [8].
